Our source for the binding values is publication PMC11559061.

The target of this assay is T1, YFP-Fpa (B. subtilis Fpa, formerly YlaN, fused N-terminally to YFP) (B. subtilis) (UniProt O07638).
T1 sequence: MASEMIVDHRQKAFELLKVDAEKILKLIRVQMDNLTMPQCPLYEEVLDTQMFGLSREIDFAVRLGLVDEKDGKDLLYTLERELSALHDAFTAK
Nature of the assay: affinity purification with mass spectrometry; YFP-Fpa immunopurified on GFP-Trap magnetic agarose from B. subtilis lysate (exponential and stationary phase cells), 4°C, lysis buffer with 200 mM NaCl, 0.25% Triton-X; GFP-only strain as control; co-isolated proteins identified by nLC-MS/MS.

These are yes or no findings as the source states them, for the method shown. Binding seen in cells or lysates may run through a third protein. A yes stands for co-enrichment or nearness to the bait. Other partners may have been found. Where a sequence is shown, tags or fusion partners need not be part of it.

B1: Fur (ferric uptake regulator) of B. subtilis (protein, UniProt P54574 1-149)
chain: MENRIDRIKKQLHSSSYKLTPQREATVRVLLENEEDHLSAEDVYLLVKEKSPEIGLATVYRTLELLTELKVVDKINFGDGVSRYDLRKEGAAHFHHHLVCMECGAVDEIEEDLLEDVEEIIERDWKFKIKDHRLTFHGICHRCNGKETE
B1: the binding result is given as “binds”.
